Laboratory results: PubChem BioAssay AID1259298 (Sanger Institute, 2017)

Purpose: 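Kinases whose loss strengthens killing by BYL719, cetuximab or trametinib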 (primary screen)
Cells: HT55 human colorectal cancer cell line
Knock-down reagent: siRNA pool against human genes
Conditions: anchor drug BYL719 1 µM, cetuximab 5 µg/ml or trametinib 10 nM, or DMSO vehicle alone
Measurement: 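Mean viability over replicates versus non-targeting pool, a robust z-score without drug, and per-drug synergy scores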
Reading the numbers: robust z-score, knock-down alone: higher = more cells remaining; low means essential gene; viability vs control pool, no drug: higher = more viable cells
Units: viability vs control pool, no drug in fraction
Active means: 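Essential when the robust z-score for knock-down alone with DMSO is below -3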
Calls: active = essential (knock-down alone); inactive = no change alone
Shown is a random part of 794 reagents. 20 of all reagents (2.5%) count as active. 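Calls rest only on the knock-down-alone score; drug synergy scores played no part in them.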 No viability above 1 is reported: the scale is capped. Further read-outs or replicates are left out here. Reagent sequences are not shown. Not stated in the record: the amount of reagent, the time to read-out.

RPS6KB1 | robust z-score, knock-down alone: -0.703; viability vs control pool, no drug: 0.9; activity call: inactive
PI4K2B | robust z-score, knock-down alone: 0.58; viability vs control pool, no drug: 1; activity call: inactive
GATA3 | robust z-score, knock-down alone: 0.25; viability vs control pool, no drug: 0.974; activity call: inactive
LMTK2 | robust z-score, knock-down alone: 0.58; viability vs control pool, no drug: 1; activity call: inactive
CDK4 | robust z-score, knock-down alone: 0.58; viability vs control pool, no drug: 1; activity call: inactive
PRKD1 | robust z-score, knock-down alone: 0.58; viability vs control pool, no drug: 1; activity call: inactive
ATP23 | robust z-score, knock-down alone: 0.58; viability vs control pool, no drug: 1; activity call: inactive
MAPK14 | robust z-score, knock-down alone: 0.521; viability vs control pool, no drug: 0.995; activity call: inactive
PHKG2 | robust z-score, knock-down alone: -0.335; viability vs control pool, no drug: 0.928; activity call: inactive
TP53RK | robust z-score, knock-down alone: 0.58; viability vs control pool, no drug: 1; activity call: inactive
NIM1K | robust z-score, knock-down alone: 0.58; viability vs control pool, no drug: 1; activity call: inactive
RIPK1 | robust z-score, knock-down alone: 0.245; viability vs control pool, no drug: 0.974; activity call: inactive

Sorted by “viability vs control pool, no drug” (low to high): 5 of the entries above.
GATA3 | robust z-score, knock-down alone: 0.25; viability vs control pool, no drug: 0.974; activity call: inactive
PI4K2B | robust z-score, knock-down alone: 0.58; viability vs control pool, no drug: 1; activity call: inactive
LMTK2 | robust z-score, knock-down alone: 0.58; viability vs control pool, no drug: 1; activity call: inactive
CDK4 | robust z-score, knock-down alone: 0.58; viability vs control pool, no drug: 1; activity call: inactive
PRKD1 | robust z-score, knock-down alone: 0.58; viability vs control pool, no drug: 1; activity call: inactive

The list goes on.
KIT | robust z-score, knock-down alone: 0.58; viability vs control pool, no drug: 1; activity call: inactive
RFK | robust z-score, knock-down alone: 0.519; viability vs control pool, no drug: 0.995; activity call: inactive
PRKX | robust z-score, knock-down alone: 0.58; viability vs control pool, no drug: 1; activity call: inactive
CDK9 | robust z-score, knock-down alone: 0.58; viability vs control pool, no drug: 1; activity call: inactive
EIF2AK2 | robust z-score, knock-down alone: -0.86; viability vs control pool, no drug: 0.887; activity call: inactive
RPS6KC1 | robust z-score, knock-down alone: 0.58; viability vs control pool, no drug: 1; activity call: inactive
PAK4 | robust z-score, knock-down alone: 0.58; viability vs control pool, no drug: 1; activity call: inactive
SF3B1 | robust z-score, knock-down alone: -2.51; viability vs control pool, no drug: 0.759; activity call: inactive
PGK2 | robust z-score, knock-down alone: 0.58; viability vs control pool, no drug: 1; activity call: inactive
AGK | robust z-score, knock-down alone: 0.58; viability vs control pool, no drug: 1; activity call: inactive
PDK4 | robust z-score, knock-down alone: 0.58; viability vs control pool, no drug: 1; activity call: inactive
PAK1 | robust z-score, knock-down alone: -0.741; viability vs control pool, no drug: 0.897; activity call: inactive
TAOK1 | robust z-score, knock-down alone: -0.806; viability vs control pool, no drug: 0.892; activity call: inactive
PRKAA2 | robust z-score, knock-down alone: 0.58; viability vs control pool, no drug: 1; activity call: inactive
MAP2K4 | robust z-score, knock-down alone: -0.515; viability vs control pool, no drug: 0.914; activity call: inactive
PRKAB1 | robust z-score, knock-down alone: -0.485; viability vs control pool, no drug: 0.917; activity call: inactive
